# Assay results published in PubChem BioAssay AID540256 (National Center for Advancing Translational Sciences (NCATS), 2011).
# Hit rate of the full screen: of about 300,000 compounds, about 3,700 (1.2%) were called active. Inconclusive results, whose numbers are uncertain, are shown with a selection of clear calls. Calls come from the whole dose curve; tested in HEK293 cells. Where the call is inconclusive, the potency comes from a doubtful curve fit.
# Assay: qHTS for Inhibitors of binding or entry into cells for Lassa Virus; note: nearly all actives have a fitted effect of over 50% in size
# Details: Lassa virus pseudotype entry inhibition, cell reporter; activity change, negative = inhibition: at 37.9 µM (top of the series) unless noted
# % is set by controls: 0 for no effect and ±100 for the full control effect; potency is the fitted concentration of half-maximal effect.
Structure (SMILES),Potency,"activity change, negative = inhibition"
CCCCC(=O)Nc1cccc(NC(=S)NC(=O)Cc2ccccc2)c1,"inconclusive: 12.6 µM [inhibitor, single point]",
O=C(Cc1coc2cc3c(cc12)CCC3)OCC(=O)N1CCCC1=O,"inconclusive: 7.94 µM [inhibitor, partial curve, poor fit]",
O=C(CCCSc1ccccc1)Nc1ccc(Cl)c(S(=O)(=O)N2CCOCC2)c1,"inconclusive: 11.2 µM [inhibitor, partial curve]",
COc1ccc(S(=O)(=O)NCCc2nnc3ccc(SCC(=O)Nc4cc(C)cc(C)c4)nn23)cc1,,inactive: -0.114% [at 46.1 µM]
COc1cc(C(=O)NNC(=O)c2ccc3c(c2)OCCO3)cc(OC)c1OC,"inconclusive: 0.631 µM [inhibitor, partial curve, poor fit]",
O=C(/C=C/c1ccc(Cl)cc1Cl)NC(=S)Nc1ccccn1,"inconclusive: 0.251 µM [activator, partial curve, poor fit]",
c1cn(CCCNc2ncnc3sc4c(c23)CCC4)cn1,,inactive: -1.3%
COc1ccc(CNC(=O)Nc2cccc(C(F)(F)F)c2)cc1OC,"inconclusive: 12.6 µM [activator, partial curve, poor fit]",
Cc1cc(C(=O)CCC(=O)N2CCN(S(=O)(=O)c3ccccc3)CC2)c(C)s1,,inactive: 1.26% [at 46.1 µM]
CCOC(=O)c1ccc(NC(=O)CSc2ccc(-c3ccccn3)nn2)cc1,"inconclusive: 39.8 µM [inhibitor, partial curve, poor fit]",
CCOc1ccc2[nH]c3c(N4CCc5ccccc5C4)ncnc3c2c1,"inconclusive: 10 µM [inhibitor, partial curve, poor fit]",
Cc1nnc(C)n1/N=C/c1ccc(-c2ccccc2Cl)o1,,inactive: 1.68%
Cc1cc(C)c2c(c1)SC1=NC(c3ccccc3)(C(F)(F)F)NC(=O)N12 (stereo not drawn),"inconclusive: 20.6 µM [activator, partial curve, poor fit]",
CCOC(=O)C(=O)NCC(c1cccnc1)N1CCN(c2ccccc2)CC1 (stereo not drawn),,inactive: -20.8% [at 46.1 µM]
C(=N/Nc1cc(N2CCOCC2)nc(N2CCOCC2)n1)/c1ccccc1,"inconclusive: 1.78 µM [inhibitor, partial curve, poor fit]",
NS(=O)(=O)c1ccc(O)c(NC(=O)c2ccc([N+](=O)[O-])cc2)c1,,inactive: 0.427% [at 46.1 µM]
Cn1cnc2c(=O)oc3ccc(S(=O)(=O)N4CCN(c5cccc(C(F)(F)F)c5)CC4)cc3c21,"inconclusive: 2.24 µM [activator, partial curve, poor fit]",
COc1ccc(NC(=O)COc2ccc(C(=O)OCC(=O)N(C)C3CCS(=O)(=O)C3)cc2OC)cc1 (stereo not drawn),"inconclusive: 1.26 µM [activator, single point]",

# 2 of the compounds above, with bars between the fields.
Structure (SMILES) | Potency | activity change, negative = inhibition
O=C(CCCSc1ccccc1)Nc1ccc(Cl)c(S(=O)(=O)N2CCOCC2)c1 | inconclusive: 11.2 µM [inhibitor, partial curve] | 
Cn1cnc2c(=O)oc3ccc(S(=O)(=O)N4CCN(c5cccc(C(F)(F)F)c5)CC4)cc3c21 | inconclusive: 2.24 µM [activator, partial curve, poor fit] | 
